# Test results reported in patent US10407455B2, “Phillygenin glucuronic acid derivative as well as preparation method and application thereof” (priority 2015, dated 2019).
# Some of these results come from one statement about several compounds together.
# How the values were obtained:
# Influenza virus = experiment: Influences of drugs on virus-induced CPE (antiviral effective rate, MTT), influenza virus; format: cell-based; settings: Vero cells, 100TCID50, drug at nearly the maximum non-cytotoxic concentration
# Parainfluenza virus = experiment: Influences of drugs on virus-induced CPE (antiviral effective rate, MTT), parainfluenza virus; format: cell-based; settings: Vero cells, 100TCID50, drug at nearly the maximum non-cytotoxic concentration
structure (smiles),measurement,setting,value
"COc1cc(C2OCC3C(c4ccc5c(c4)OCO5)OCC23)ccc1OC1OC(C(=O)O)C(O)C(O)C1O [Compound III, 33,34-Methylenedioxy phillygenin-8-O-β-D-glucuronide]",antiviral effective rate (ER %),Influenza virus; listed as compound III,exceeding 90%
same,antiviral effective rate (ER %),Parainfluenza virus; listed as compound III,exceeding 90%
COc1ccc(C2OCC3C(c4ccc(OC5OC(C(=O)O)C(O)C(O)C5O)c(O)c4)OCC23)cc1OC (stereo not drawn) [Compound II],antiviral effective rate (ER %),Influenza virus; listed as compound II,exceeding 90%
same,antiviral effective rate (ER %),Parainfluenza virus; listed as compound II,exceeding 90%
COc1cc(C2OCC3C(c4ccc(OC5OC(C(=O)O)C(O)C(O)C5O)c(OC)c4)OCC23)ccc1O (stereo not drawn) [Compound I],antiviral effective rate (ER %),Influenza virus; listed as compound I,exceeding 90%
same,antiviral effective rate (ER %),Parainfluenza virus; listed as compound I,exceeding 90%
